Holding throughout (assay): co-IP; tagged proteins co-expressed in N. benthamiana leaves (agroinfiltration, 2 days); extract in 150 mM Tris-HCl pH 7.5, 150 mM NaCl, 10% glycerol, 10 mM EDTA, 0.1% Tween-20; GFP-tagged protein captured on GFP-Trap MA beads, 2 h at 4 °C; four washes; partner detected by western blot
The target of assay [1] is T1, VPY-GFP (Medicago truncatula) (UniProt D3J162).
T1 sequence: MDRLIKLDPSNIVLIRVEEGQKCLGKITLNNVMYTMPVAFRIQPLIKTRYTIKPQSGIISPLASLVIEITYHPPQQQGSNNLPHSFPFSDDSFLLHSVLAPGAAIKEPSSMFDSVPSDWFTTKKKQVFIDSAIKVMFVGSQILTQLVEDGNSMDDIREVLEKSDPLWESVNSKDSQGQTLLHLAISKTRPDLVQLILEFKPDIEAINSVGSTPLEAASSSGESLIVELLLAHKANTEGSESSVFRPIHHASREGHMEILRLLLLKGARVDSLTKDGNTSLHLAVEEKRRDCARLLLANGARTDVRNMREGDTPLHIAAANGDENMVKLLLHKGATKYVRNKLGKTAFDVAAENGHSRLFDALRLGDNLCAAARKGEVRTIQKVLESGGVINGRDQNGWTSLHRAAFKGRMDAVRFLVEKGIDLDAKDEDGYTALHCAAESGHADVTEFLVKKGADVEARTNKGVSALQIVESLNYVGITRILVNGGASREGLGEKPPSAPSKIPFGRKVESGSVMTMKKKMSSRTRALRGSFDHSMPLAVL

Amino acid sequences for entries named in this document (tags omitted).
UniProt Q6RET7: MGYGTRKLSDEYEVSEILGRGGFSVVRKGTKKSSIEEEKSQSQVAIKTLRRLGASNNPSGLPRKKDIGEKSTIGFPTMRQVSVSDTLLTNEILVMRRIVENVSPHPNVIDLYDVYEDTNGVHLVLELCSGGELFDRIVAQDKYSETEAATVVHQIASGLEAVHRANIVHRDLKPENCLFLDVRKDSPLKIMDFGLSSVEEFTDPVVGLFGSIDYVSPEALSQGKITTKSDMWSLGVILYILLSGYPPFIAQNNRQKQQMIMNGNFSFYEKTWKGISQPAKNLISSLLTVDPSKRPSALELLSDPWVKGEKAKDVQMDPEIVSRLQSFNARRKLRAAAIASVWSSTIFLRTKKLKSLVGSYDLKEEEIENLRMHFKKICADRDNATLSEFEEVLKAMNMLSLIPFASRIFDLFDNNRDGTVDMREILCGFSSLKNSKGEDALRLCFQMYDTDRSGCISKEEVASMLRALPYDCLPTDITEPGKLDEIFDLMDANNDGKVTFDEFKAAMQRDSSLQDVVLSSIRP

Assay [2] has as its target GFP-DMI3 (Medicago truncatula) (UniProt Q6RET7).
Assay [3] addresses GFP-ΔDELLA1 (Medicago truncatula).

Results are given in words; binding and its absence hold for the method and conditions named. In cells and extracts the contact can be indirect. For some assays here: Binding calls can cover weak binding; strength is not graded here. For some assays here: Sequences can lack the tags named with a protein.

Take “FLAG-tagged KINASE2 (Medicago truncatula) (enzyme)”: the binding result in assay [1] is “binds”.
Still for that read-out and setting: to “KINASE2-HA (Medicago truncatula) (enzyme)” belongs “binds”.
For VPY_(ANKΔ3-5)-HA (from UniProt D3J162), in assay [2], the binding entry is “binds”.
Still for that read-out and setting: to VPY_(ANKΔ7-9)-HA (from UniProt D3J162) belongs “no binding”.

B1: VPY-HA (protein, UniProt D3J162 1-541)
chain: T1 sequence
B1: the binding result in assay [3] was “no binding”.

Source of the values: article PMC9445082.
